Test results as given in PMC9944737.
Results are given in words; binding and its absence hold for the method and conditions named. Binding seen in cells or lysates may run through a third protein. Some entries that bind do so weakly or less than the wild type.

Chains of the proteins cited; added tags and fusions are not shown.
UniProt P35222: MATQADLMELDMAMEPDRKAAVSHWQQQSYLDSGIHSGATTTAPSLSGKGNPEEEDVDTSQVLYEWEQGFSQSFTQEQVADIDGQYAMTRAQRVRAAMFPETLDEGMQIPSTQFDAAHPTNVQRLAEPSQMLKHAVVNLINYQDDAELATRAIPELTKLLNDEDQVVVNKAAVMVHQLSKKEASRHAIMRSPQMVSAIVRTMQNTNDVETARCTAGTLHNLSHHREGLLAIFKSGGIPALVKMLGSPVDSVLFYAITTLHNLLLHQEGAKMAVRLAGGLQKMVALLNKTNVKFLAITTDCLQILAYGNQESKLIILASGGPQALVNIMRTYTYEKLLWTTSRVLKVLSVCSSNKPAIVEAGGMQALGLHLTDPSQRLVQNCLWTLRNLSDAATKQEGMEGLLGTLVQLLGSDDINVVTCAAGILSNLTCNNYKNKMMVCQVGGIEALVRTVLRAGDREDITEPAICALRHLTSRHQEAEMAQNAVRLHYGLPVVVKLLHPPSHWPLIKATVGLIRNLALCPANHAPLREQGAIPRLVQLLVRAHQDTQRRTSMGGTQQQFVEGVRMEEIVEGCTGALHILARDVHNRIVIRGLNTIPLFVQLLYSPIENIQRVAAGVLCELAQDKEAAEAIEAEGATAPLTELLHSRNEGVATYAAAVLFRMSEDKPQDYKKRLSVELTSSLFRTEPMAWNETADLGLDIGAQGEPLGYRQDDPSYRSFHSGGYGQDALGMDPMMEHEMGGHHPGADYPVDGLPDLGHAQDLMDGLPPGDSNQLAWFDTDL

Biological target: T1, harmonin (USH1C), endogenous in HEK293T cells (human (endogenous in HEK293T)) (UniProt Q9Y6N9)
T1 sequence: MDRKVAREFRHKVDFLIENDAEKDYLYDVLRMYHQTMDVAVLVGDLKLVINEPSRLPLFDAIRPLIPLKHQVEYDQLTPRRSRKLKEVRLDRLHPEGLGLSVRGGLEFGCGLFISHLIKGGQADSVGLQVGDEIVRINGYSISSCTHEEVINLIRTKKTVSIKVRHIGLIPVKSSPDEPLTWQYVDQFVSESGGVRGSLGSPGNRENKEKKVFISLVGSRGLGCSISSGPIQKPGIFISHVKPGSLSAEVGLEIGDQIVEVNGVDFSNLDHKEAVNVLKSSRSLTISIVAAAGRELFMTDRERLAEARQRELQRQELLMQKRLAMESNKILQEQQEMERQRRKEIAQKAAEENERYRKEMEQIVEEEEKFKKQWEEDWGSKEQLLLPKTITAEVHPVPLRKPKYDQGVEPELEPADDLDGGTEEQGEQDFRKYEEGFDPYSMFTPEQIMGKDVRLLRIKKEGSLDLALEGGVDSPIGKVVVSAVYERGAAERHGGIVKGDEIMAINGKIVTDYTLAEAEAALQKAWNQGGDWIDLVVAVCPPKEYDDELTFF
Test: proximity ligation; Duolink PLA in fixed HEK293T cells, endogenous proteins, anti-harmonin (rabbit) and anti-β-catenin (mouse) antibodies; controls with only one or none of the primary antibodies

β-catenin, endogenous in HEK293T cells (from UniProt P35222 1-781)
binding: binds
